From the supplement of paper PMC10849652
The list shows a part of the results.

Amino acid sequences for entries named in this document (tags omitted). A change or cut given only in a name is not applied to a line headed by its entry.
UniProt O15372, whole entry, looked up: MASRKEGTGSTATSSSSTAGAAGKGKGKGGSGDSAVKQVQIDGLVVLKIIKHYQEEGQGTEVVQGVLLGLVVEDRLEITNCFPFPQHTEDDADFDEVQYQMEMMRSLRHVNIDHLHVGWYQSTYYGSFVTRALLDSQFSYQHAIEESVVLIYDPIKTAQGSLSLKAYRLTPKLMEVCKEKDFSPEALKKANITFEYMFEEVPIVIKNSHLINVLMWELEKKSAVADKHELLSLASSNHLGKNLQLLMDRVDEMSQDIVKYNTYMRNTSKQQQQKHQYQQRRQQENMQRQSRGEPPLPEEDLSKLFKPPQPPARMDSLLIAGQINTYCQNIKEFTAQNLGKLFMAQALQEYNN
UniProt O43414: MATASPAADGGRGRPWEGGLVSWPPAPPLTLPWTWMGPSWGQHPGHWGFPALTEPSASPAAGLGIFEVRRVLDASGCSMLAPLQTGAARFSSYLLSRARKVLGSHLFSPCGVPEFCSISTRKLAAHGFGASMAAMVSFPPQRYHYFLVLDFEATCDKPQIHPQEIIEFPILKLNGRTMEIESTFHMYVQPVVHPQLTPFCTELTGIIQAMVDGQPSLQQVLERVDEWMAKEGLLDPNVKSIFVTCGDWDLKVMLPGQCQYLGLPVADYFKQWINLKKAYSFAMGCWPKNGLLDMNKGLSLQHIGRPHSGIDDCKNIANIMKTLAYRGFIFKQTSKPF
UniProt P09104, whole entry, looked up: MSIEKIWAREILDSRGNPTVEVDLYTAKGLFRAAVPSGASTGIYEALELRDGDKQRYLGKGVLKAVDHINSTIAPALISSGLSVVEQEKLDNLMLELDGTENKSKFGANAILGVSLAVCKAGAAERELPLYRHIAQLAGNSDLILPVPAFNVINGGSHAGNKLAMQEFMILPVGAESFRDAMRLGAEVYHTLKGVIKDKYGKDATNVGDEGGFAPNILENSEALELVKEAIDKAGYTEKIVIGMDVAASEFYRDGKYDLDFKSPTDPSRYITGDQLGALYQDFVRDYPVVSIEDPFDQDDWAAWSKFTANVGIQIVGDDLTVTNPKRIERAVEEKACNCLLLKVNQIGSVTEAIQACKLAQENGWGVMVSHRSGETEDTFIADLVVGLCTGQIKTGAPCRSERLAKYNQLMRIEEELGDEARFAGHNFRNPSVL
UniProt P55010, whole entry, looked up: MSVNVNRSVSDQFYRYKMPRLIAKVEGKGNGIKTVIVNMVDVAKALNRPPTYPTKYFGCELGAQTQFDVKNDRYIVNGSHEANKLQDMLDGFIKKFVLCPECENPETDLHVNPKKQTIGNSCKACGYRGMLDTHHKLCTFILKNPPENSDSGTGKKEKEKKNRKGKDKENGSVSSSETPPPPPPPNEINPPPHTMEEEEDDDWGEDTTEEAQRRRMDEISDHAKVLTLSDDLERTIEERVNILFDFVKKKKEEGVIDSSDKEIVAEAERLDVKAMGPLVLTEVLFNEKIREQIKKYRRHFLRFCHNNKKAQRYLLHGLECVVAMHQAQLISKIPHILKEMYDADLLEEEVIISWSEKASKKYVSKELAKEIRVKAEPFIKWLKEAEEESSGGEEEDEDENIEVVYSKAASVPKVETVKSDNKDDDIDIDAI
UniProt O43491, whole entry, looked up: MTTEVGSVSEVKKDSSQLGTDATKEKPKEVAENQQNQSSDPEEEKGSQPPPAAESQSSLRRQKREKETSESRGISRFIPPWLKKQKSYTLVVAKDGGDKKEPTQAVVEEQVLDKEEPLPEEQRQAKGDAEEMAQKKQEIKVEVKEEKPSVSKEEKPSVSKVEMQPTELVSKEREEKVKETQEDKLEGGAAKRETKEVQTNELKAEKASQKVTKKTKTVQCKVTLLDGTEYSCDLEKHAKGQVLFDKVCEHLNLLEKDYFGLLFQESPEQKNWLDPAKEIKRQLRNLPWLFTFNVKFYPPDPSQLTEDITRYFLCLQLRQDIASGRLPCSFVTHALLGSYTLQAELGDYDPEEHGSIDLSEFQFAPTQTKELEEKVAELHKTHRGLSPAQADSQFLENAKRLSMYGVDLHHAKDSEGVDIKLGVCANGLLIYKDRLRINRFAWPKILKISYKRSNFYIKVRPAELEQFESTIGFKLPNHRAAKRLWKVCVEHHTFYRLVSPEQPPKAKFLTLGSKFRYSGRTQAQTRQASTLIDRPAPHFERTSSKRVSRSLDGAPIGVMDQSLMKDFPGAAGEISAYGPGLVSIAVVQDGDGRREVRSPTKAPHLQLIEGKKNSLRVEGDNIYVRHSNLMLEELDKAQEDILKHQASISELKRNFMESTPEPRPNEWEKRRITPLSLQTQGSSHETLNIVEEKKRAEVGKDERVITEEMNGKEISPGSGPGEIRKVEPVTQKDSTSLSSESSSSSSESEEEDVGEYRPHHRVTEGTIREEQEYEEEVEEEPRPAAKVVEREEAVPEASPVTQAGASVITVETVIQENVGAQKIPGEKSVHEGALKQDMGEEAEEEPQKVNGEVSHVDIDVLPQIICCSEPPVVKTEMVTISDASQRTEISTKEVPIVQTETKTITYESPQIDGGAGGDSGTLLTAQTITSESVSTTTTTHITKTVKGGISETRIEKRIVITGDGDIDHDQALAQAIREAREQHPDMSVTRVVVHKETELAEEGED
UniProt P38919, whole entry, looked up: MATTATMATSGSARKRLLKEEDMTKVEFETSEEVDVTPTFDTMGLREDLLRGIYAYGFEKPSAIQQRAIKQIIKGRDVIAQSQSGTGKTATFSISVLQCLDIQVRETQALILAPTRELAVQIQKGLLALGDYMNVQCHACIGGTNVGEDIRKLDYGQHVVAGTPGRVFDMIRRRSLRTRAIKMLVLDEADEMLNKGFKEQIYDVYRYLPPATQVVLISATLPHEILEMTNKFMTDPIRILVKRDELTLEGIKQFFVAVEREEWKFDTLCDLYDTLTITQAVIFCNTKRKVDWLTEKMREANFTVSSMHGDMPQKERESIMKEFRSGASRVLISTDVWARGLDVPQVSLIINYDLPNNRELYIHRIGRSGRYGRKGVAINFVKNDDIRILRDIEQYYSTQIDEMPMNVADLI
UniProt O75822, whole entry, looked up: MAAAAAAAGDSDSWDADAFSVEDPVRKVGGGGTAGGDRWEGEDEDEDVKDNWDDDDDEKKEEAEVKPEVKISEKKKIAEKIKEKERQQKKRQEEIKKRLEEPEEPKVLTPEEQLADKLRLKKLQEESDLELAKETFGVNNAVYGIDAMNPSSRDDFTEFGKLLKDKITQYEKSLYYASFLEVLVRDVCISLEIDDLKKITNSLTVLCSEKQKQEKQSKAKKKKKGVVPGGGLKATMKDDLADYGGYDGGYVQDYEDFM
UniProt Q9P2K8: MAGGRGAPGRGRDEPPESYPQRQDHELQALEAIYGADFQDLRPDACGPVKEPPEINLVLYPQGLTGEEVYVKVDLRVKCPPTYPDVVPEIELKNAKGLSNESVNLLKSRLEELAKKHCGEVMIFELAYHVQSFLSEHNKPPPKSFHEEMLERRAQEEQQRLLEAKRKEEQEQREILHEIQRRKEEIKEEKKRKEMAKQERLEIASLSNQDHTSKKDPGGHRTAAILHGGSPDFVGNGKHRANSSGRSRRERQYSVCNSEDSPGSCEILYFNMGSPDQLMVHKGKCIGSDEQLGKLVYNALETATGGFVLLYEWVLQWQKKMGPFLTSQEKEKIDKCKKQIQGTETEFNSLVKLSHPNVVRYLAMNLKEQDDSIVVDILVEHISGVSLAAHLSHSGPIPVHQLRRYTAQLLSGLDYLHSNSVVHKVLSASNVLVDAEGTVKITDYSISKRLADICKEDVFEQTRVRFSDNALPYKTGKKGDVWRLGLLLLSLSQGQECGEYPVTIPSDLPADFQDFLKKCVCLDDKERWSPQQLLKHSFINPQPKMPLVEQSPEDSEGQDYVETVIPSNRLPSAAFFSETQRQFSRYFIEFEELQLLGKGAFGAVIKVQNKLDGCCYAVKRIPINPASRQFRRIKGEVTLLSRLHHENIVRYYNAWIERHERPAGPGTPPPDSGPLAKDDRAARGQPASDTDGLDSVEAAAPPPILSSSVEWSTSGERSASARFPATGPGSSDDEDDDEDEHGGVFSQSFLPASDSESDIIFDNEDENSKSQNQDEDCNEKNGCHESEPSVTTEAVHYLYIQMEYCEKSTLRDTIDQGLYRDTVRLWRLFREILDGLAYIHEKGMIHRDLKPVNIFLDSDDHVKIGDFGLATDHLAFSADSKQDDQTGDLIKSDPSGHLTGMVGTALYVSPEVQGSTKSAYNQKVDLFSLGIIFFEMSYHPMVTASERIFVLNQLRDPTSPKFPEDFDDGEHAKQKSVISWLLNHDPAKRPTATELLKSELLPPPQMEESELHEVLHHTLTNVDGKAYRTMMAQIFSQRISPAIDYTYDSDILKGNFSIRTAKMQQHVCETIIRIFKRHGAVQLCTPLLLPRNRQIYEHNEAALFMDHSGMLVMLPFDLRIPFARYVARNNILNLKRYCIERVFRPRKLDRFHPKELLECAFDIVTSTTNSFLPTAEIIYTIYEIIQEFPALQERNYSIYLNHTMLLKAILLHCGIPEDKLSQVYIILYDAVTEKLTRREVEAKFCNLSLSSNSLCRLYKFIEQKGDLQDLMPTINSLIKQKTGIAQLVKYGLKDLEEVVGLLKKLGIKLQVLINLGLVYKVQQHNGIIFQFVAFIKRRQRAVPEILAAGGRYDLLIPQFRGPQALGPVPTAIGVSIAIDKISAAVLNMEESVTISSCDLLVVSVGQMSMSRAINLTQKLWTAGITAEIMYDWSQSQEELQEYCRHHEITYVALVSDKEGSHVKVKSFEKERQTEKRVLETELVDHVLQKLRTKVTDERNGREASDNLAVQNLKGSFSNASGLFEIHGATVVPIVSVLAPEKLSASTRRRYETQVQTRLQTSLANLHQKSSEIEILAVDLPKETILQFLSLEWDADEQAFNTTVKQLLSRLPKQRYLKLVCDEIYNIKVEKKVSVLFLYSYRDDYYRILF
UniProt O15371, whole entry, looked up: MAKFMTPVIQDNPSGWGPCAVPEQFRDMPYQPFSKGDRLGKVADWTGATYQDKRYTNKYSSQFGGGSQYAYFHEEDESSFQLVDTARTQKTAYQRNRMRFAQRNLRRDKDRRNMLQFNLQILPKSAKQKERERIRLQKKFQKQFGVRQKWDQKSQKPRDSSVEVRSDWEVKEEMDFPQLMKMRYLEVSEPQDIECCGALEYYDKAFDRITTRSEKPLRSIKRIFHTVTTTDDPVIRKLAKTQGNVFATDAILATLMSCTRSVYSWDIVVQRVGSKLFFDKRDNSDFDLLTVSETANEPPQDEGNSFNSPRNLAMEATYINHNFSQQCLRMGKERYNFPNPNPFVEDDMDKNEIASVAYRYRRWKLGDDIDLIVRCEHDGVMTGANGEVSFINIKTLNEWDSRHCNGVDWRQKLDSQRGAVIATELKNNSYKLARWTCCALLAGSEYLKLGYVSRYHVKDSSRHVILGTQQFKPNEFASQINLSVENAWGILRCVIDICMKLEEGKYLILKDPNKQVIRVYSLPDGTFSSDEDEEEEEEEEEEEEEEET
UniProt Q13347, whole entry, looked up: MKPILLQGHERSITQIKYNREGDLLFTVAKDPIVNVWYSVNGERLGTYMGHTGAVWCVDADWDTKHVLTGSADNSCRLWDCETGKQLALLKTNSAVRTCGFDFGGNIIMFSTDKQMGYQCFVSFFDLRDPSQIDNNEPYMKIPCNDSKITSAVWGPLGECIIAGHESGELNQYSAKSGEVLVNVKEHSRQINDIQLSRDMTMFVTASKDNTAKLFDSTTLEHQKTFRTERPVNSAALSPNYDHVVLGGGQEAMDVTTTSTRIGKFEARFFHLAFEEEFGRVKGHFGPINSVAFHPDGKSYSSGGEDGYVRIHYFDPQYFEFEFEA
UniProt Q9H9T3: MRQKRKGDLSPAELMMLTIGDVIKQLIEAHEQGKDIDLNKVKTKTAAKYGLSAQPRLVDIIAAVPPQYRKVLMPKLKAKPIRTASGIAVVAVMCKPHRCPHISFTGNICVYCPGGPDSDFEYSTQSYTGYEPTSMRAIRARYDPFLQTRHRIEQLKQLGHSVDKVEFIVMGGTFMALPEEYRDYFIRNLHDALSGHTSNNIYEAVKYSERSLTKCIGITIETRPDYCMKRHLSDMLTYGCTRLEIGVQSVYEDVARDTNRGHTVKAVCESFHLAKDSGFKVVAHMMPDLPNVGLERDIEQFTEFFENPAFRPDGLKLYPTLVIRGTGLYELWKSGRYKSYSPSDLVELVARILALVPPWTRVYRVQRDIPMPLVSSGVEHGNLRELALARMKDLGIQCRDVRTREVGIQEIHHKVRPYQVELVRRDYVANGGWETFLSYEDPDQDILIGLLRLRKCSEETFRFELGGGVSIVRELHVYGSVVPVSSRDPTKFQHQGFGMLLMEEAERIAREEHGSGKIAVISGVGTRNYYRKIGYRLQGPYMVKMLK

Assays:
Test in all cases: log2 fold change, soluble protein after heating vs DMSO (PISA); higher = thermal stabilisation; K562 lysate, 10 uM; active = over 0.2 and 3.5 SD of the protein, either way, in both replicates (recomputed)
vemurafenib = compound: CCCS(=O)(=O)Nc1ccc(F)c(C(=O)c2c[nH]c3ncc(-c4ccc(Cl)cc4)cc23)c1F [vemurafenib]
Method in brief: (§1)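 To prepare the extract, K562 pellets were dounce-homogenised in PBS pH 7.4 with 1 mM MgCl2, giving crude material at 1 mg/mL protein. This was treated with 10 μM compound for 30 min, then heated in aliquots for 3 min over 48°C-58°C before pooling and addition of NP-40 to 0.5% at 4°C. Centrifugation at 21,000xg for 90 min left soluble protein in the supernatant, which TMTpro 16plex LC-MS/MS quantified with equalised channel sums. Results are log-two fold changes in thermal stability compared with solvent controls, from duplicates.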

[1] = compound: CCCS(=O)(=O)Nc1ccc(F)c(C(=O)c2c[nH]c3ncc(Cl)cc23)c1F
Method in brief: as §1

barasertib = compound: CCN(CCCOc1ccc2c(Nc3cc(CC(=O)Nc4cccc(F)c4)[nH]n3)ncnc2c1)CCOP(=O)(O)O [barasertib]
Method in brief: as §1

[2] = compound: CC[C@@H]1C(=O)N(C)c2cnc(Nc3ccc(C(=O)NC4CCN(C)CC4)cc3OC)nc2N1C1CCCC1
Method in brief: as §1

volasertib = compound: CC[C@@H]1C(=O)N(C)c2cnc(Nc3ccc(C(=O)N[C@H]4CC[C@H](N5CCN(CC6CC6)CC5)CC4)cc3OC)nc2N1C(C)C [volasertib]
Method in brief: as §1

[3] = compound: CCn1c(C(=O)N(C2CC2)C2CC2)cc2c3c(ncn3C)c(Nc3cc(C)n(C)n3)nc21
Method in brief: as §1

[4] = compound: CCn1cc(-c2ccnc3[nH]c(-c4cccc(CN(C)C)c4)cc23)c(-c2ccc(NC(=O)N(C)C)cc2)n1
Method in brief: as §1

[5] = compound: CN1CCC(CNc2ccc3ncc(-c4cccc(OC(F)(F)F)c4)n3n2)CC1
Method in brief: as §1

saracatinib = compound: CN1CCN(CCOc2cc(OC3CCOCC3)c3c(Nc4c(Cl)ccc5c4OCO5)ncnc3c2)CC1 [saracatinib]
Method in brief: as §1

sotrastaurin = compound: CN1CCN(c2nc(C3=C(c4c[nH]c5ccccc45)C(=O)NC3=O)c3ccccc3n2)CC1 [sotrastaurin]
Method in brief: as §1

alvocidib = compound: CN1CC[C@H](c2c(O)cc(O)c3c(=O)cc(-c4ccccc4Cl)oc23)[C@H](O)C1 [alvocidib]
Method in brief: as §1

Tubastatin A = compound: CN1CCc2c(c3ccccc3n2Cc2ccc(C(=O)NO)cc2)C1 [Tubastatin A]
Method in brief: as §1

[6] = compound: CNC(=O)C1=CC=CC=C1NC2=NC(=NC=C2Cl)NC3=C(C=C(C=C3)N4CCOCC4)OC
Method in brief: as §1

defactinib = compound: CNC(=O)c1ccc(Nc2ncc(C(F)(F)F)c(NCc3nccnc3N(C)S(C)(=O)=O)n2)cc1 [defactinib]
Method in brief: as §1

[7] = compound: CNc1nc(-c2ccc3c(N)n[nH]c3c2)cc(N2C[C@@H](C(=O)NC3CCCCC3)CC[C@H]2C)n1
Method in brief: as §1

encorafenib = compound: COC(=O)N[C@@H](C)CNc1nccc(-c2cn(C(C)C)nc2-c2cc(Cl)cc(NS(C)(=O)=O)c2F)n1 [encorafenib]
Method in brief: as §1

[8] = compound: COC(=O)[C@H](CCSC)NC(=O)C1=C(C=C(C=C1)NC[C@H](CS)N)C2=CC=CC=C2
Method in brief: as §1

alisertib = compound: COc1cc(Nc2ncc3c(n2)-c2ccc(Cl)cc2C(c2c(F)cccc2OC)=NC3)ccc1C(=O)O [alisertib]
Method in brief: as §1

[9] = compound: COc1cc2nc(-c3cc(F)ccc3O)nc(N[C@@H]3CNC[C@H]3C(C)(C)O)c2cc1OC
Method in brief: as §1

gefitinib = compound: COc1cc2ncnc(Nc3ccc(F)c(Cl)c3)c2cc1OCCCN1CCOCC1 [gefitinib]
Method in brief: as §1

| Target | log2 fold change (vemurafenib) | log2 fold change [1] | log2 fold change (barasertib) | log2 fold change [2] | log2 fold change (volasertib) | log2 fold change [3] | log2 fold change [4] | log2 fold change [5] | log2 fold change (saracatinib) | log2 fold change (sotrastaurin) | log2 fold change (alvocidib) | log2 fold change (Tubastatin A) | log2 fold change [6] | log2 fold change (defactinib) | log2 fold change [7] | log2 fold change (encorafenib) | log2 fold change [8] | log2 fold change (alisertib) | log2 fold change [9] | log2 fold change (gefitinib) |
| --- | --- | --- | --- | --- | --- | --- | --- | --- | --- | --- | --- | --- | --- | --- | --- | --- | --- | --- | --- | --- |
| EIF3H (UniProt O15372) | inactive: 0.011 | inactive: 0.003 | inactive: -0.008 | inactive: 0.069 | inactive: 0.005 | inactive: -0.012 | inactive: -0.058 | inactive: 0.031 | inactive: 0.002 | inactive: 0.022 | inactive: -0.006 | inactive: 0.001 | inactive: -0.005 | inactive: 0.009 | inactive: 0.006 | inactive: 0.012 | inactive: -0.042 | inactive: -0.005 | inactive: 0.001 | inactive: 0.011 |
| ERI3 (UniProt O43414) | inactive: 0.012 | inactive: 0.017 | inactive: -0.013 | inactive: 0.035 | inactive: -0.037 | inactive: -0.03 | inactive: -0.016 | inactive: 0.084 | inactive: -0.009 | inactive: 0.004 | inactive: 0.023 | inactive: 0 | inactive: 0.026 | inactive: 0 | inactive: -0.018 | inactive: -0.013 | inactive: 0.034 | inactive: 0.014 | inactive: 0.012 | inactive: 0.045 |
| ENO2 (UniProt P09104) | inactive: 0.05 | inactive: 0.008 | inactive: -0.132 | inactive: 0.044 | inactive: 0.046 | inactive: -0.069 | inactive: -0.231 | active: 0.319 | inactive: 0.06 | inactive: 0.034 | active: -0.279 | inactive: 0.024 | inactive: -0.018 | inactive: -0.007 | inactive: 0.073 | inactive: 0.032 | inactive: 0.086 | inactive: -0.025 | inactive: -0.014 | inactive: -0.021 |
| EIF4H (UniProt Q15056) | inactive: -0.036 | inactive: 0.025 | inactive: -0.036 | inactive: 0.071 | inactive: 0.026 | inactive: -0.013 | inactive: -0.01 | inactive: 0.012 | inactive: -0.021 | inactive: 0.058 | inactive: -0.031 | inactive: 0.02 | inactive: 0.009 | inactive: 0.039 | inactive: 0.005 | inactive: -0.01 | inactive: -0.032 | inactive: 0.044 | inactive: -0.027 | inactive: 0.007 |
| EIF5 (UniProt P55010) | inactive: -0.05 | inactive: 0.005 | inactive: -0.018 | inactive: 0 | inactive: -0.003 | inactive: 0.005 | inactive: 0.072 | inactive: -0.002 | inactive: 0.005 | inactive: -0.016 | inactive: 0.017 | inactive: 0.059 | inactive: -0.012 | inactive: 0.002 | inactive: 0.012 | inactive: -0.018 | inactive: -0.025 | inactive: 0.008 | inactive: -0.004 | inactive: -0.003 |
| EPB41L2 (UniProt O43491) | inactive: -0.009 | inactive: 0.013 | inactive: 0.019 | inactive: 0.001 | inactive: 0.003 | inactive: -0.014 | inactive: 0.09 | inactive: -0.035 | inactive: 0.025 | inactive: -0.011 | inactive: 0.025 | inactive: 0.021 | inactive: -0.007 | inactive: -0.003 | inactive: 0.01 | inactive: -0.01 | inactive: -0.023 | inactive: -0.003 | inactive: -0.003 | inactive: -0.017 |
| EIF3G (UniProt O75821) | inactive: 0.019 | inactive: 0.008 | inactive: -0.115 | inactive: 0.021 | inactive: 0.014 | inactive: -0.019 | inactive: -0.022 | inactive: -0.058 | inactive: 0.009 | inactive: 0.003 | inactive: 0.003 | inactive: 0.023 | inactive: -0.008 | inactive: 0.009 | inactive: 0.011 | inactive: -0.013 | inactive: -0.01 | inactive: 0.008 | inactive: -0.002 | inactive: -0.024 |
| EIF4A3 (UniProt P38919) | inactive: 0.01 | inactive: 0.017 | inactive: 0.026 | inactive: -0.035 | inactive: -0.023 | inactive: 0.026 | inactive: -0.165 | inactive: 0.049 | inactive: -0.008 | inactive: 0.025 | inactive: -0.003 | inactive: 0.002 | inactive: -0.01 | inactive: -0.009 | inactive: 0.008 | inactive: -0.019 | inactive: 0.039 | inactive: 0.019 | inactive: 0.018 | inactive: -0.023 |
| EPB41L1 (UniProt Q9H4G0) | inactive: 0.047 | inactive: 0.012 | inactive: -0.044 | inactive: -0.007 | inactive: -0.049 | inactive: -0.161 | inactive: 0.014 | inactive: 0.045 | inactive: 0.067 | inactive: 0.102 | inactive: -0.025 | inactive: 0.021 | inactive: 0.075 | inactive: -0.068 | inactive: 0.016 | inactive: -0.092 | inactive: 0.056 | inactive: -0.081 | inactive: -0.049 | inactive: 0.035 |
| EIF3J (UniProt O75822) | inactive: 0.021 | inactive: -0.018 | inactive: -0.017 | inactive: 0.05 | inactive: 0.032 | inactive: -0.016 | inactive: -0.009 | inactive: -0.007 | inactive: -0.002 | inactive: 0.006 | inactive: -0.017 | inactive: 0.058 | inactive: 0.003 | inactive: -0.071 | inactive: 0.055 | inactive: -0.021 | inactive: -0.014 | inactive: -0.001 | inactive: 0.016 | inactive: -0.032 |
| EIF2AK4 (UniProt Q9P2K8) | inactive: 0.018 | inactive: 0.02 | inactive: 0.055 | inactive: 0.031 | inactive: -0.001 | inactive: -0.009 | inactive: -0.003 | inactive: 0.034 | inactive: 0.019 | inactive: 0.009 | inactive: -0.046 | inactive: -0.022 | inactive: -0.006 | inactive: 0.011 | inactive: 0.026 | inactive: -0.021 | inactive: 0.017 | inactive: -0.006 | inactive: -0.007 | inactive: 0.028 |
| EIF3D (UniProt O15371) | inactive: 0.009 | inactive: -0.009 | inactive: 0.019 | inactive: -0.094 | inactive: -0.046 | inactive: -0.002 | inactive: -0.043 | inactive: 0.04 | inactive: 0.026 | inactive: -0.009 | inactive: 0.021 | inactive: -0.073 | inactive: 0.073 | inactive: -0.011 | inactive: 0.019 | inactive: 0.012 | inactive: 0.206 | inactive: 0.015 | inactive: 0.004 | inactive: 0.005 |
| EIF3I (UniProt Q13347) | inactive: 0.017 | inactive: 0.025 | inactive: 0.017 | inactive: -0.113 | inactive: -0.078 | inactive: 0.011 | inactive: -0.034 | inactive: -0.03 | inactive: -0.008 | inactive: 0.027 | inactive: 0.034 | inactive: -0.126 | inactive: 0.01 | inactive: 0.002 | inactive: -0.043 | inactive: -0.018 | inactive: 0.156 | inactive: 0.003 | inactive: 0.009 | inactive: -0.03 |
| ERGIC3 isoform 3 (UniProt Q9Y282) | inactive: 0.08 | inactive: 0.056 | inactive: 0.109 | inactive: -0.021 | inactive: 0.009 | inactive: 0.031 | inactive: 0.012 | inactive: -0.047 | inactive: -0.028 | inactive: 0.047 | inactive: -0.025 | inactive: 0.015 | inactive: -0.06 | inactive: 0.106 | inactive: -0.12 | inactive: 0.019 | inactive: -0.046 | inactive: 0.003 | inactive: -0.031 | inactive: 0.068 |
| EIF4G3, A0A0U1RQK7 | inactive: 0.009 | inactive: 0.029 | inactive: 0.013 | inactive: -0.004 | inactive: -0.023 | inactive: 0.051 | inactive: -0.05 | inactive: 0.038 | inactive: 0.046 | inactive: 0.032 | inactive: 0.013 | inactive: -0.072 | inactive: 0.021 | inactive: 0.031 | inactive: 0.015 | inactive: 0.024 | inactive: 0.086 | inactive: 0.018 | inactive: 0.022 | inactive: 0.02 |
| ELP3 (UniProt Q9H9T3) | inactive: -0.004 | inactive: 0.019 | inactive: 0.018 | inactive: -0.016 | inactive: -0.02 | inactive: -0.012 | inactive: -0.005 | inactive: 0.002 | inactive: -0.019 | inactive: 0.011 | inactive: 0.013 | inactive: 0.004 | inactive: -0.011 | inactive: 0.002 | inactive: -0.006 | inactive: 0.025 | inactive: -0.066 | inactive: 0.012 | inactive: -0.002 | inactive: -0.001 |

Record cards (already shown). Values in the order: log2 fold change (vemurafenib)	log2 fold change [1]	log2 fold change (barasertib)	log2 fold change [2]	log2 fold change (volasertib)	log2 fold change [3]	log2 fold change [4]	log2 fold change [5]	log2 fold change (saracatinib)	log2 fold change (sotrastaurin)	log2 fold change (alvocidib)	log2 fold change (Tubastatin A)	log2 fold change [6]	log2 fold change (defactinib)	log2 fold change [7]	log2 fold change (encorafenib)	log2 fold change [8]	log2 fold change (alisertib)	log2 fold change [9]	log2 fold change (gefitinib)
EIF3H (UniProt O15372) as listed: inactive: 0.011	inactive: 0.003	inactive: -0.008	inactive: 0.069	inactive: 0.005	inactive: -0.012	inactive: -0.058	inactive: 0.031	inactive: 0.002	inactive: 0.022	inactive: -0.006	inactive: 0.001	inactive: -0.005	inactive: 0.009	inactive: 0.006	inactive: 0.012	inactive: -0.042	inactive: -0.005	inactive: 0.001	inactive: 0.011
EIF3J (UniProt O75822) as listed: inactive: 0.021	inactive: -0.018	inactive: -0.017	inactive: 0.05	inactive: 0.032	inactive: -0.016	inactive: -0.009	inactive: -0.007	inactive: -0.002	inactive: 0.006	inactive: -0.017	inactive: 0.058	inactive: 0.003	inactive: -0.071	inactive: 0.055	inactive: -0.021	inactive: -0.014	inactive: -0.001	inactive: 0.016	inactive: -0.032
